Test results taken from the supplement of paper PMC10849652.
Some of the results follow. Residues, ends and D or L forms follow the SMILES beside them. *: point of attachment. Cbz = O=C(OCc1ccccc1)*

Sequences of proteins named here, by UniProt entry; tags and fusion partners are left off. A change or cut given only in a name is not applied to a line headed by its entry.
UniProt Q6ZS86: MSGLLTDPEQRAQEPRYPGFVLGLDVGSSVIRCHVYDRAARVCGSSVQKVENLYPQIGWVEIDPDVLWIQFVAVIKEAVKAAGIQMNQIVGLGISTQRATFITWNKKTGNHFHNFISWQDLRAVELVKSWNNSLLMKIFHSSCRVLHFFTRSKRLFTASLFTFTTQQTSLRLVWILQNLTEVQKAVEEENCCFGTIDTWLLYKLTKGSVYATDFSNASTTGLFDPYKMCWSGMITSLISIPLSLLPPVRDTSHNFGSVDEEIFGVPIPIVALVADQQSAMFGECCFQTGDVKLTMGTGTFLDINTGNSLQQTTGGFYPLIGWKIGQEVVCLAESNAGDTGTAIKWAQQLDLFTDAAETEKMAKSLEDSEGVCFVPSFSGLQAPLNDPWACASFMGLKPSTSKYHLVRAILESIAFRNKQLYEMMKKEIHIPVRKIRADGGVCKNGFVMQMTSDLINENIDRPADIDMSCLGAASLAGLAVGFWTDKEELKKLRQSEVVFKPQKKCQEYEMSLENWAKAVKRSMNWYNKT
UniProt Q13227: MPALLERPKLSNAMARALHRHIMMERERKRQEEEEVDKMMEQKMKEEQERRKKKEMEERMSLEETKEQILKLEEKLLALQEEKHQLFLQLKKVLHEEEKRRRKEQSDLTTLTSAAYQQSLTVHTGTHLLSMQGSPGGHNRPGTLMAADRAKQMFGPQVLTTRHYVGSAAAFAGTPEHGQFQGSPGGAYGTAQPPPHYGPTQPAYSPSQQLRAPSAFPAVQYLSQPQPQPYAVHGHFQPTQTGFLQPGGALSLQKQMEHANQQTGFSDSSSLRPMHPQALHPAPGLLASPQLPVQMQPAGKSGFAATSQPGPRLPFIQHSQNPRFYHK
UniProt Q9H4G4: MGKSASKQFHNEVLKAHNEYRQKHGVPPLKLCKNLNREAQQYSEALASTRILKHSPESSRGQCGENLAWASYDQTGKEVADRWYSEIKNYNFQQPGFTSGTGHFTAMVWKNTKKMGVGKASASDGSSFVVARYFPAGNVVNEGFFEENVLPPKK
UniProt Q92917: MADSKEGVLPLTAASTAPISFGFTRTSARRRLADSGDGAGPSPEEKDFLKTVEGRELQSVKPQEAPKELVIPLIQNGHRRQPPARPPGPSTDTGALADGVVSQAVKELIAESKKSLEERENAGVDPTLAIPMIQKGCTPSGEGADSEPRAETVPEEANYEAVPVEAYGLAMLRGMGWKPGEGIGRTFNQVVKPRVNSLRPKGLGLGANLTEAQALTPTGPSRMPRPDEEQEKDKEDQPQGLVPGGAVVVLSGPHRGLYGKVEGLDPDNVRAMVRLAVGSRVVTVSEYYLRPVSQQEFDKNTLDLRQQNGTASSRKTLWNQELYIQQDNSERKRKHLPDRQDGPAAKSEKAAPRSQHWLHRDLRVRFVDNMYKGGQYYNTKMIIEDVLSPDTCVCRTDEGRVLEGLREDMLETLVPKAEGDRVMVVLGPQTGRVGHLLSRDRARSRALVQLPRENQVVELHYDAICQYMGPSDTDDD
UniProt P36969, whole entry, looked up: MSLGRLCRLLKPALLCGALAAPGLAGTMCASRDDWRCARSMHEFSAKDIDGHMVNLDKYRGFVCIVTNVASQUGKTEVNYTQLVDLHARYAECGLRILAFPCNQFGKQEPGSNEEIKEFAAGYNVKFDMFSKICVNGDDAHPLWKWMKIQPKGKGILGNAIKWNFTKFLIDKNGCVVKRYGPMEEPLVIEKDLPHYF
UniProt Q5JWF2, whole entry, looked up: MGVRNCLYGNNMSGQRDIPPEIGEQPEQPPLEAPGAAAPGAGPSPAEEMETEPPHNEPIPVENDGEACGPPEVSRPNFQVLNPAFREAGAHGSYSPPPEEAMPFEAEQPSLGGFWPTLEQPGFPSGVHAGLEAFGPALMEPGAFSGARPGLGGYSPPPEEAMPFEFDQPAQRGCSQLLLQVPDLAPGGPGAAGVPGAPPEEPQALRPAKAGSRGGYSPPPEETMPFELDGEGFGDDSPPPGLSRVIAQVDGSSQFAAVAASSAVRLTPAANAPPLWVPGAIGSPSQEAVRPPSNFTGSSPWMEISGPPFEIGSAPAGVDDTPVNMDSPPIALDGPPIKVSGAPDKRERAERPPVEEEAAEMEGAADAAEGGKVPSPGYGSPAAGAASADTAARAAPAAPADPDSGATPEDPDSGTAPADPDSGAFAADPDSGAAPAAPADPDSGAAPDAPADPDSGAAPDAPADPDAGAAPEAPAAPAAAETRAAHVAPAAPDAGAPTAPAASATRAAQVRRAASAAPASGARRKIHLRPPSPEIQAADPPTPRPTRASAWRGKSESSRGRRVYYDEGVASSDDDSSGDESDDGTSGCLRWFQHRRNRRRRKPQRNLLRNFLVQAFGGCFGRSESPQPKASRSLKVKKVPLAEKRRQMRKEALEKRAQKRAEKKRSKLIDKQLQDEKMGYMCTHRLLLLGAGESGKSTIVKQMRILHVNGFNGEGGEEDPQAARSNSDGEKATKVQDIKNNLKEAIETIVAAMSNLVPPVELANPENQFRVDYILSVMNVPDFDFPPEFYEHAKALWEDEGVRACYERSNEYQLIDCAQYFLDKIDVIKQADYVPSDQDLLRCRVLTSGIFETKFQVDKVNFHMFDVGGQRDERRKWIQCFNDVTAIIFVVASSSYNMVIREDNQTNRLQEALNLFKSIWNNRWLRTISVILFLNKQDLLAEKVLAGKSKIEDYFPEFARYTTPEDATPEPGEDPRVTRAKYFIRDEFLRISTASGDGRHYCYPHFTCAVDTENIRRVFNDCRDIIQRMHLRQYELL
UniProt P08754, whole entry, looked up: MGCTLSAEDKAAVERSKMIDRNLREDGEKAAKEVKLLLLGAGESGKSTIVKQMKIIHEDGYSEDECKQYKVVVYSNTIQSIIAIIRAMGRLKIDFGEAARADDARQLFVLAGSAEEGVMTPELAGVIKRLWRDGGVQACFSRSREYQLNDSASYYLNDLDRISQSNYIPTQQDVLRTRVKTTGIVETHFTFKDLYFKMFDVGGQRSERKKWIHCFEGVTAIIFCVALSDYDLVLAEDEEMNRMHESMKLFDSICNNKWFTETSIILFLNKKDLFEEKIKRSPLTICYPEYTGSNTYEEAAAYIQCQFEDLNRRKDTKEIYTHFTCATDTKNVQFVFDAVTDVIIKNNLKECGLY
UniProt P49840: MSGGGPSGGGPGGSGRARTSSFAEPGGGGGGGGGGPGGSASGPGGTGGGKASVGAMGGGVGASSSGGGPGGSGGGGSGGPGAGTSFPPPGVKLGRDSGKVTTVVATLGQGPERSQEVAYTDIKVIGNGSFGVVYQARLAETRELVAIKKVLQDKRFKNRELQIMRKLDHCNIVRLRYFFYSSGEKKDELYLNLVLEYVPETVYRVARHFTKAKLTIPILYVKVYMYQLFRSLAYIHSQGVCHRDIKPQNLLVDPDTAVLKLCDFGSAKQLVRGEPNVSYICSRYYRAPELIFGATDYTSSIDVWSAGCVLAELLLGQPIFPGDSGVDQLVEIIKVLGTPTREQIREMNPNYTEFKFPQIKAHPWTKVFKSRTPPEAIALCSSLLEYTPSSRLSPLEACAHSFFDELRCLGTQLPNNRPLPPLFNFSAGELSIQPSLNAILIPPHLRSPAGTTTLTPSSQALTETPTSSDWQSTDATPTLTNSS
UniProt P63218: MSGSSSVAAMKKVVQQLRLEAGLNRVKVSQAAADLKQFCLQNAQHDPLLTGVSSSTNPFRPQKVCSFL
UniProt Q86VQ1: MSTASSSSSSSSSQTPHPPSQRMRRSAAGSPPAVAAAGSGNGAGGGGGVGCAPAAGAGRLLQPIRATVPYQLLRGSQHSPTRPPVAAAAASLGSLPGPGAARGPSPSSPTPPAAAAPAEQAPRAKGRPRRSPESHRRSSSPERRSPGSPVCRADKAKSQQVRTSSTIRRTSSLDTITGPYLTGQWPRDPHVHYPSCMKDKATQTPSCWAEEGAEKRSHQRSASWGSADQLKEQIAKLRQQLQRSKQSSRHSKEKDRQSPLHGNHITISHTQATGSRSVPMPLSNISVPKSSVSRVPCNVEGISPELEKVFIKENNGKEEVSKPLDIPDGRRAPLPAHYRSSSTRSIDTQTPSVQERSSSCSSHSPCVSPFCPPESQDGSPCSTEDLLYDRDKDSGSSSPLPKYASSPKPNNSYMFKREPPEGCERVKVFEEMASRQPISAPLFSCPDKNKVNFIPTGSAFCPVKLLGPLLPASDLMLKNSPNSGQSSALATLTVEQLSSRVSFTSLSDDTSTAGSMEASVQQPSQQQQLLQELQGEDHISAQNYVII
UniProt Q5T3I0: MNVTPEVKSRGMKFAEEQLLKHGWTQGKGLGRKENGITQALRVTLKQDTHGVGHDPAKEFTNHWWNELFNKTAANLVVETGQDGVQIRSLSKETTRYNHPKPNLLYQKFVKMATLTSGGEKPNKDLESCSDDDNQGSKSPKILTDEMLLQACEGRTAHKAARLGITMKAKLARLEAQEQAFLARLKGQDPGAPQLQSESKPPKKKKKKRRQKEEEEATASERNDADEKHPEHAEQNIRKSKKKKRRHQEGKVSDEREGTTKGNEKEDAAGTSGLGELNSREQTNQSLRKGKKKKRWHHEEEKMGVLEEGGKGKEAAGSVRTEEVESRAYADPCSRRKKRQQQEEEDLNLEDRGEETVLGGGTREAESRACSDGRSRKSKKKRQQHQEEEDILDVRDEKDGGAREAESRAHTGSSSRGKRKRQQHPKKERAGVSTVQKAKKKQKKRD
UniProt Q9P107: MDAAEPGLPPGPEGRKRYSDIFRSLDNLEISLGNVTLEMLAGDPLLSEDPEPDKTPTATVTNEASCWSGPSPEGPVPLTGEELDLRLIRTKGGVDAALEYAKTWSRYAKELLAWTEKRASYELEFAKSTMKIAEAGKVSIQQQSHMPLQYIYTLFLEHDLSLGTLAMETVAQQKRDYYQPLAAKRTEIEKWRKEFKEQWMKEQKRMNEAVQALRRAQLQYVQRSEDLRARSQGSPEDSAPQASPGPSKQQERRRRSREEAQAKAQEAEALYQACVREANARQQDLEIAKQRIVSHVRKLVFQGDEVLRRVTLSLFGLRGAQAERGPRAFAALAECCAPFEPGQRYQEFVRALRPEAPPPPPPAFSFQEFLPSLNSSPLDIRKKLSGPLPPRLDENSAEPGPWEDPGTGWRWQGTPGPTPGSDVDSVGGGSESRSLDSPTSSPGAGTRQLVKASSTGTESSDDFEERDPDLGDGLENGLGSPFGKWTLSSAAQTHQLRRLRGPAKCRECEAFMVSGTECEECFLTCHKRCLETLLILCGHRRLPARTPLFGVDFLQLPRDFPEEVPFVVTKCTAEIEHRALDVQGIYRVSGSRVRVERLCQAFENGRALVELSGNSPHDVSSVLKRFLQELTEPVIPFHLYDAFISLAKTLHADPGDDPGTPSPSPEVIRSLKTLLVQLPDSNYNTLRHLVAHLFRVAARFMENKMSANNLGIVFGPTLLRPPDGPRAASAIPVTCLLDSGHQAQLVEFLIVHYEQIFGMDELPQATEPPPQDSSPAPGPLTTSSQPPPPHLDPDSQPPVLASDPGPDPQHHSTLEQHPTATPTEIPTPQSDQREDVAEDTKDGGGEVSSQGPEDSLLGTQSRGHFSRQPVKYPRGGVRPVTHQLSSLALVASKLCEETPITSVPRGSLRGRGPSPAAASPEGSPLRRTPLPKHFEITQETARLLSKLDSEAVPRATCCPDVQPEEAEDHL
UniProt Q9H4A6: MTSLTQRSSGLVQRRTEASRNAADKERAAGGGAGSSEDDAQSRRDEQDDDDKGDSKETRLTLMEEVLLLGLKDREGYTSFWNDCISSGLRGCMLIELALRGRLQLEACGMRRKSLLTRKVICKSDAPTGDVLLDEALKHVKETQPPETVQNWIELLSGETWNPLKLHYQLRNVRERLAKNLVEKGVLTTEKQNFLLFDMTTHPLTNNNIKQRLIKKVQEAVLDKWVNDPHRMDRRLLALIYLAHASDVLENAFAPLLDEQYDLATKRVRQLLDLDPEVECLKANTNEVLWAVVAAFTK
UniProt O14653: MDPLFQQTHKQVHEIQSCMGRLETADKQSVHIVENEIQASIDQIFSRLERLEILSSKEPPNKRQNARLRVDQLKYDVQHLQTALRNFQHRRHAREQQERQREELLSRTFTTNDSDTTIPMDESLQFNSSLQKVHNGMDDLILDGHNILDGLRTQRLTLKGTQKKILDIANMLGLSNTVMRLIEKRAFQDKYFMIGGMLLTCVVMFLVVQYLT

Columns and labels:
Assay in all cases: log2 fold change, soluble protein after heating vs DMSO (PISA); higher = thermal stabilisation; K562 cells, 10 uM, 30 min; active = over 0.2 and 3.5 SD of the protein, either way, in both replicates (recomputed)
IRAK-1-4 Inhibitor I = compound: C1COCCN1CCN2C3=CC=CC=C3N=C2NC(=O)C4=CC(=CC=C4)[N+](=O)[O-] [IRAK-1-4 Inhibitor I]
Method in brief: (§1)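 Aliquots of K562 cells (2×10^6 cells/mL) treated with 10 μM compound for 30 min were heated for 3 min over 48°C-58°C. After pooling and extraction in PBS with 0.5% NP-40 at 4°C, soluble protein from a 21,000xg, 90 min spin was quantified by TMTpro 16plex LC-MS/MS with channel sums equalised. Thermal stability is expressed against control samples, from duplicates, as a log2 fold change.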

ibrutinib = compound: C=CC(=O)N1CCC[C@@H](n2nc(-c3ccc(Oc4ccccc4)cc3)c3c(N)ncnc32)C1 [ibrutinib]
Method in brief: as §1

[1] = compound: CC(=O)c1cnc2ccc(-c3cc(Cl)c(O)c(Cl)c3)nc2c1N[C@H]1CC[C@H](CN(C)C)CC1
Method in brief: as §1

ralimetinib = compound: CC(C)(C)Cn1c(N)nc2ccc(-c3[nH]c(C(C)(C)C)nc3-c3ccc(F)cc3)nc21 [ralimetinib]
Method in brief: as §1

[2] = compound: CC(C)(O)CC(=O)NCCn1ccc2ncnc(Nc3ccc(Oc4cccc(C(F)(F)F)c4)c(Cl)c3)c21
Method in brief: as §1

[3] = compound: CC(C)C[C@@H](C=O)NC(=O)[C@H](CC(C)C)NC(=O)[C@H](CC(C)C)NC(=O)OCc1ccccc1
Method in brief: as §1

pinometostat = compound: CC(C)N(C[C@H]1O[C@@H](n2cnc3c(N)ncnc32)[C@H](O)[C@@H]1O)[C@H]1C[C@@H](CCc2nc3cc(C(C)(C)C)ccc3[nH]2)C1 [pinometostat]
Method in brief: as §1

[4] = compound: CC1=C(C2=C(C=C1)C(=O)C3=CC=CC=C3N2CCCN)C
Method in brief: as §1

[5] = compound: CC1=C(C=C(C=C1)NC(=O)C2=CC(=CC=C2)N(C)C)NC(=O)C3=CC=C(C=C3)O
Method in brief: as §1

[6] = compound: CC1=CC=C(C=C1)SC2=C3C=C(SC3=CN=C2)C(=O)N
Method in brief: as §1

[7] = compound: CC1=NC(=CC=C1)C2=C(N=C(N2)C(C)(C)C)C3=CC4=NC=CN=C4C=C3
Method in brief: as §1

Nexturastat A = compound: CCCCN(Cc1ccc(C(=O)NO)cc1)C(=O)Nc1ccccc1 [Nexturastat A]
Method in brief: as §1

vemurafenib = compound: CCCS(=O)(=O)Nc1ccc(F)c(C(=O)c2c[nH]c3ncc(-c4ccc(Cl)cc4)cc23)c1F [vemurafenib]
Method in brief: as §1

[8] = compound: CCCS(=O)(=O)Nc1ccc(F)c(C(=O)c2c[nH]c3ncc(Cl)cc23)c1F
Method in brief: as §1

barasertib = compound: CCN(CCCOc1ccc2c(Nc3cc(CC(=O)Nc4cccc(F)c4)[nH]n3)ncnc2c1)CCOP(=O)(O)O [barasertib]
Method in brief: as §1

[9] = compound: CC(C)C1=C2N=C(C=C(N2N=C1)NCC3=CC=CC=C3)NCCCCCCN
Method in brief: as §1

[10] = compound: CC1=C(C=C(C=C1)NC(=O)C2=CC(=CC=C2)C(C)(C)C#N)NC3=CC4=C(C=C3)N=CN(C4=O)C
Method in brief: as §1

[11] = compound: CCCc1cc(C)[nH]c(=O)c1CNC(=O)c1cc(-c2ccnc(N3CCN(C)CC3)c2)cc2c1cnn2C(C)C
Method in brief: as §1

givinostat = compound: CCN(CC)Cc1ccc2cc(COC(=O)Nc3ccc(C(=O)NO)cc3)ccc2c1 [givinostat]
Method in brief: as §1

[12] = compound: CC1=C(C(CC(=O)N1)C2=CC=C(C=C2)C(F)(F)F)C(=O)NC3=C(C=C4C(=C3)C=NN4)F
Method in brief: as §1

Row | Target | log2 fold change (IRAK-1-4 Inhibitor I) | log2 fold change (ibrutinib) | log2 fold change [1] | log2 fold change (ralimetinib) | log2 fold change [2] | log2 fold change [3] | log2 fold change (pinometostat) | log2 fold change [4] | log2 fold change [5] | log2 fold change [6] | log2 fold change [7] | log2 fold change (Nexturastat A) | log2 fold change (vemurafenib) | log2 fold change [8] | log2 fold change (barasertib) | log2 fold change [9] | log2 fold change [10] | log2 fold change [11] | log2 fold change (givinostat) | log2 fold change [12]
1 | GK5 (UniProt Q6ZS86) | inactive: -0.051 | inactive: -0.155 | inactive: -0.043 | inactive: -0.172 | inactive: 0.091 | inactive: 0.144 | inactive: -0.055 | inactive: 0.008 | inactive: 0.068 | inactive: -0.078 | inactive: 0.004 | inactive: -0.002 | inactive: 0.055 | inactive: 0.108 | inactive: -0.074 |  |  |  |  | 
2 | GPS2 (UniProt Q13227) | inactive: -0.013 | inactive: -0.006 |  | inactive: -0.19 | inactive: -0.052 | inactive: -0.069 | inactive: 0.019 | inactive: -0.135 | inactive: -0.04 | inactive: -0.17 | inactive: -0.013 | active: -0.316 | inactive: 0.019 | inactive: -0.01 | inactive: -0.008 | inactive: 0.027 | inactive: -0.13 | inactive: 0.026 | inactive: -0.145 | 
3 | GLIPR2 (UniProt Q9H4G4) | inactive: 0.038 | inactive: -0.047 | inactive: -0.01 | inactive: 0.04 | inactive: 0.06 | inactive: 0.012 | inactive: 0.03 | inactive: 0.061 | inactive: -0.152 | inactive: -0.054 | inactive: -0.032 | inactive: 0.062 | inactive: 0.092 | inactive: -0.014 | inactive: 0 | active: -0.35 | inactive: 0.156 | inactive: 0.028 | inactive: 0.009 | 
4 | GPKOW (UniProt Q92917) | inactive: -0.016 | inactive: -0.005 | inactive: -0.172 | inactive: -0.08 | inactive: -0.026 | inactive: 0.006 | inactive: 0.047 | inactive: 0.056 | inactive: -0.033 | inactive: 0.062 | inactive: 0.055 | inactive: -0.106 | inactive: 0.009 | inactive: 0.07 | inactive: 0.027 | inactive: -0.184 | inactive: 0.053 | inactive: -0.058 | inactive: 0.084 | 
5 | GPX4 (UniProt P36969) | inactive: -0.026 | inactive: 0.065 | inactive: -0.005 | inactive: 0.01 | inactive: 0.003 | active: -0.462 | inactive: -0.078 | inactive: 0.02 | inactive: -0.068 | inactive: 0.095 | inactive: 0.06 | inactive: -0.151 | inactive: -0.019 | inactive: 0.005 | inactive: -0.012 | inactive: 0.099 | inactive: -0.005 | inactive: -0.027 | active: -0.451 | 
6 | GNAS (UniProt Q5JWF2) | inactive: -0.04 | inactive: 0.001 | inactive: -0.059 | inactive: 0.009 | inactive: 0.022 | inactive: -0.009 | inactive: 0 | inactive: 0.073 | inactive: -0.043 | inactive: -0.014 | inactive: -0.027 | inactive: -0.01 | inactive: 0.034 | inactive: -0.027 | inactive: -0.011 | inactive: 0.041 | inactive: 0.105 | inactive: 0.067 | inactive: -0.036 | 
7 | GNAI3 (UniProt P08754) | inactive: -0.007 | inactive: 0.083 | inactive: 0.027 | inactive: 0.066 | inactive: 0.083 | inactive: -0.03 | inactive: 0.024 | inactive: 0.038 | inactive: -0.012 | inactive: -0.07 | inactive: -0.021 | inactive: 0.072 | inactive: 0.037 | inactive: -0.025 | inactive: 0 | inactive: 0.006 | inactive: 0.125 | inactive: 0.069 | active: -0.263 | 
8 | GOPC (UniProt Q9HD26) | inactive: -0.119 | inactive: -0.104 | inactive: 0.03 | inactive: 0.259 | inactive: -0.04 | inactive: 0.083 | inactive: 0.174 | inactive: 0.085 | inactive: 0.018 | inactive: -0.051 | inactive: -0.066 | inactive: 0.131 | inactive: 0.094 | inactive: -0.128 | inactive: -0.116 | inactive: 0.046 | inactive: 0.207 | inactive: 0.244 | inactive: 0.152 | 
9 | GSK3A (UniProt P49840) | inactive: 0.099 | inactive: 0.011 | active: 0.303 | inactive: -0.061 | inactive: -0.107 | inactive: -0.022 | inactive: -0.031 | inactive: 0.022 | inactive: 0.009 | inactive: 0.197 | inactive: 0.021 | inactive: -0.094 | inactive: -0.023 | inactive: -0.003 | inactive: 0.014 | inactive: 0.011 | inactive: -0.025 | inactive: -0.039 | inactive: -0.053 | 
10 | GOLGB1 isoform 2 (UniProt Q14789) | inactive: -0.023 | inactive: -0.032 | inactive: 0.031 | inactive: 0.045 | inactive: 0.05 | inactive: 0.082 | inactive: 0.102 | inactive: -0.051 | inactive: -0.057 | inactive: -0.09 | inactive: -0.033 | inactive: 0.177 | inactive: -0.085 | inactive: -0.07 | inactive: -0.07 | inactive: 0.065 | inactive: 0.033 | inactive: -0.047 | inactive: 0 | 
11 | GLB1 (UniProt P16278) | inactive: 0.041 | inactive: 0.033 | inactive: -0.005 | inactive: -0.009 | inactive: 0.048 | inactive: 0.062 | inactive: 0.021 | inactive: -0.015 | inactive: -0.026 | inactive: -0.033 | inactive: -0.038 | inactive: 0.086 | inactive: -0.017 | inactive: -0.007 | inactive: -0.027 | active: -0.282 | inactive: -0.051 | inactive: 0.003 | inactive: 0.002 | 
12 | GNG5 (UniProt P63218) | inactive: -0.022 | inactive: 0.039 | inactive: 0.047 | inactive: 0.072 | inactive: -0.084 | inactive: -0.065 | inactive: -0.072 | inactive: 0.002 | inactive: -0.17 | inactive: -0.02 | inactive: 0.074 | inactive: 0.068 | inactive: 0.038 | inactive: 0.004 | inactive: -0.064 | inactive: 0.109 | inactive: 0.147 | inactive: 0.022 | inactive: -0.063 | 
13 | GLCCI1 (UniProt Q86VQ1) | inactive: 0.062 | inactive: 0.013 | inactive: -0.131 | inactive: 0.001 | inactive: -0.012 | inactive: 0.017 | inactive: -0.03 | inactive: -0.013 | inactive: 0.104 | inactive: -0.029 | inactive: 0.028 | inactive: 0 | inactive: -0.007 | inactive: -0.035 | inactive: -0.075 | inactive: 0.075 | inactive: 0.037 | inactive: 0.033 | inactive: 0.045 | 
14 | GPATCH4 isoform 3 (UniProt Q5T3I0) | inactive: -0.179 | inactive: 0.016 |  | inactive: 0.04 | inactive: 0.093 | inactive: 0.211 | inactive: 0.242 | inactive: -0.036 | inactive: -0.245 | inactive: -0.038 | inactive: -0.214 | inactive: 0.392 | inactive: -0.213 | inactive: 0.013 | inactive: -0.136 |  |  |  |  | 
15 | GPAA1 (UniProt E9PLG8) | inactive: -0.208 | inactive: -0.023 | inactive: -0.073 |  |  |  | inactive: -0.044 | inactive: -0.086 |  |  | inactive: 0.207 |  |  |  | inactive: -0.142 |  |  | inactive: -0.104 |  | inactive: -0.094
16 | GMIP (UniProt Q9P107) | inactive: 0.084 | inactive: 0.123 |  | inactive: 0.067 | inactive: -0.048 | inactive: 0.074 | inactive: 0.058 | inactive: 0.023 | inactive: -0.099 |  | inactive: -0.021 | inactive: 0.157 |  |  | inactive: -0.068 | inactive: -0.215 | inactive: -0.113 |  | inactive: 0.087 | inactive: -0.014
17 | GOLPH3 (UniProt Q9H4A6) | inactive: 0.033 | inactive: -0.035 | inactive: -0.023 | inactive: -0.005 | inactive: -0.031 | inactive: -0.005 | inactive: -0.013 | inactive: -0.028 | inactive: -0.031 | inactive: -0.017 | inactive: 0.022 | inactive: -0.017 | inactive: 0.015 | inactive: 0.058 | inactive: 0.023 | active: 0.31 | inactive: 0.074 | inactive: -0.011 | inactive: -0.007 | 
18 | GOSR2 isoform 2 (UniProt O14653) | inactive: -0.019 | inactive: -0.036 | inactive: 0.062 | inactive: -0.045 |  | inactive: -0.04 | inactive: -0.088 | inactive: 0.052 | inactive: -0.058 | inactive: 0.135 | inactive: 0.073 |  | inactive: 0.034 | inactive: 0.113 | inactive: 0.029 | inactive: -0.124 | inactive: -0.017 | inactive: -0.044 | inactive: 0.014 | inactive: -0.084

Fetched one by one from the entries so far, 2 records:
Row | Target | log2 fold change (IRAK-1-4 Inhibitor I) | log2 fold change (ibrutinib) | log2 fold change [1] | log2 fold change (ralimetinib) | log2 fold change [2] | log2 fold change [3] | log2 fold change (pinometostat) | log2 fold change [4] | log2 fold change [5] | log2 fold change [6] | log2 fold change [7] | log2 fold change (Nexturastat A) | log2 fold change (vemurafenib) | log2 fold change [8] | log2 fold change (barasertib) | log2 fold change [9] | log2 fold change [10] | log2 fold change [11] | log2 fold change (givinostat) | log2 fold change [12]
5 | GPX4 (UniProt P36969) | inactive: -0.026 | inactive: 0.065 | inactive: -0.005 | inactive: 0.01 | inactive: 0.003 | active: -0.462 | inactive: -0.078 | inactive: 0.02 | inactive: -0.068 | inactive: 0.095 | inactive: 0.06 | inactive: -0.151 | inactive: -0.019 | inactive: 0.005 | inactive: -0.012 | inactive: 0.099 | inactive: -0.005 | inactive: -0.027 | active: -0.451 | 
14 | GPATCH4 isoform 3 (UniProt Q5T3I0) | inactive: -0.179 | inactive: 0.016 |  | inactive: 0.04 | inactive: 0.093 | inactive: 0.211 | inactive: 0.242 | inactive: -0.036 | inactive: -0.245 | inactive: -0.038 | inactive: -0.214 | inactive: 0.392 | inactive: -0.213 | inactive: 0.013 | inactive: -0.136 |  |  |  |  | 
